Measurements taken from publication PMC3805608.
These are yes or no findings as the source states them, for the method shown. In cells and extracts the contact can be indirect. Some binding calls cover weakened binding; strength is not graded here. Tags and fused reporters may be left off the sequences shown.

The chains behind the UniProt entries cited, without tags or fusion partners. Residues count along the entry.
UniProt P18537, residues 19-581: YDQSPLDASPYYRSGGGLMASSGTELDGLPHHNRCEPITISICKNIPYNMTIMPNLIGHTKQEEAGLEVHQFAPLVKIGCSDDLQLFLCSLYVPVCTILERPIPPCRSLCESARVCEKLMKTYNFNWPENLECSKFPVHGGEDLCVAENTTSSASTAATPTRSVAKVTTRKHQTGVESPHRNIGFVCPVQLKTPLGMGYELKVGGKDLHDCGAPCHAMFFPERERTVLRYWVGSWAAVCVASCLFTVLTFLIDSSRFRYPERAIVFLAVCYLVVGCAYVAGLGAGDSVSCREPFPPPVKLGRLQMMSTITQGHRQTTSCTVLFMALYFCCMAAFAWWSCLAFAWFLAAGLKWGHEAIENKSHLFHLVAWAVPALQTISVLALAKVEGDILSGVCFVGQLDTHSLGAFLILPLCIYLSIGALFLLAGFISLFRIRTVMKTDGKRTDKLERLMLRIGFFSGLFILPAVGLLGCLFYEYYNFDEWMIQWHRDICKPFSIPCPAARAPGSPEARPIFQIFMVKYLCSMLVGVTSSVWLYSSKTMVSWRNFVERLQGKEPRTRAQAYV

Target: T1, His6-Rab5 (UniProt Q9V3I2)
T1 sequence: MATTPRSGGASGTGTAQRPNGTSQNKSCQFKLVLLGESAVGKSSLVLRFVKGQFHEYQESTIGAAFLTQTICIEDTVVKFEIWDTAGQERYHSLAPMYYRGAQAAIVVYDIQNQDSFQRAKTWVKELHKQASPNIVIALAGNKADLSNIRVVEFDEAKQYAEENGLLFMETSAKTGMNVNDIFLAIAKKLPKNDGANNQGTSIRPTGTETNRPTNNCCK
Assay: pull-down; MBP-Kermit, His6-CG5036 or His6-Rab5 linked on CNBr-activated Sepharose; MBP-Fz from bacterial membranes solubilized with 10 mM CHAPS (30 min, 4°C); 3 h at 4°C, Western blot; only the target purified

binding: binds
Substance: MBP-Fz (from UniProt P18537 19-581) (receptor)
